No constants are given. Whether binding was seen depends on the method and setting. Binding seen in cells or lysates may run through a third protein. A result given as binding can be weak or reduced; the word gives no strength.
T1: LIS1 (PAFAH1b1, platelet-activating factor acetylhydrolase isoform 1b subunit 1), endogenous (mouse (endogenous in osteoclasts from C57/BL6 bone marrow macrophages)) (UniProt P63005)
T1 sequence: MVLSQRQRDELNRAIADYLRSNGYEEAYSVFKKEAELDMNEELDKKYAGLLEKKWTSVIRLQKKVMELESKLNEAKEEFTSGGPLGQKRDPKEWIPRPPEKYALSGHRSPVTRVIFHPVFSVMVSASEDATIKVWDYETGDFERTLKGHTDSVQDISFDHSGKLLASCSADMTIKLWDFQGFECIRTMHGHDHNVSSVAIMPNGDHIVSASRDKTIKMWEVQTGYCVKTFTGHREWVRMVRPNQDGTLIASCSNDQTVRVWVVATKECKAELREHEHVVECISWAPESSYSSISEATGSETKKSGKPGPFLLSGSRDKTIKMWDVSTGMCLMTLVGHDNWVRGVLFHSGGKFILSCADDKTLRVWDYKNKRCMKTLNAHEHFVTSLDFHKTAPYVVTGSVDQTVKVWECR


Legend:
[1] = target: T1, LIS1 (PAFAH1b1, platelet-activating factor acetylhydrolase isoform 1b subunit 1), endogenous (mouse (endogenous in osteoclasts from C57/BL6 bone marrow macrophages)); assay: co-IP; lysate of mature osteoclasts transduced with truncated HA-Plekhm1 fragments, H-buffer; endogenous LIS1 precipitated with a rabbit polyclonal antibody, Plekhm1 detected with monoclonal anti-HA
[2] = target: GST fusion protein of the PH1 domain of mouse Plekhm1 (mouse); assay: pull-down; 2 µg GST fusion protein of single Plekhm1 domains on glutathione beads, 2 mg mature osteoclast lysate, 2 hours at 4°C, IP buffer (20 mM Hepes pH 7.4, 120 mM NaCl, 5% glycerol, 0.5 mM EDTA, 0.2% NP-40); immunoblot with anti-LIS1; only the target purified
[3] = target: HA-tagged C-terminal half of mouse Plekhm1 (mouse); assay: co-IP; lysate of mature osteoclasts transduced with HA-Plekhm1 constructs, H-buffer (20 mM HEPES pH 7.4, 1% Triton X-100, 1 mM EDTA, 150 mM NaCl, 1 mM DTT); IP with anti-HA, blots with anti-LIS1, anti-DIC and anti-HA
[4] = target: HA-tagged N-terminal half of mouse Plekhm1 (mouse); assay: as above

Molecule | binding [1] | binding [2] | binding [3] | binding [4]
HA-tagged C-terminal half of mouse Plekhm1 (domain or fragment) | binds |  |  | 
HA-tagged C-terminal half of mouse Plekhm1 depleted in PH1 domain (domain or fragment) | no binding |  |  | 
HA-tagged N-terminal half of mouse Plekhm1 without RUN domain (domain or fragment) | no binding |  |  | 
LIS1 (PAFAH1b1, platelet-activating factor acetylhydrolase isoform 1b subunit 1), endogenous (protein, UniProt P63005 1-410) MVLSQRQRDELNRAIADYLRSNGYEEAYSVFKKEAELDMNEELDKKYAGLLEKKWTSVIRLQKKVMELESKLNEAKEEFTSGGPLGQKRDPKEWIPRPPEKYALSGHRSPVTRVIFHPVFSVMVSASEDATIKVWDYETGDFERTLKGHTDSVQDISFDHSGKLLASCSADMTIKLWDFQGFECIRTMHGHDHNVSSVAIMPNGDHIVSASRDKTIKMWEVQTGYCVKTFTGHREWVRMVRPNQDGTLIASCSNDQTVRVWVVATKECKAELREHEHVVECISWAPESSYSSISEATGSETKKSGKPGPFLLSGSRDKTIKMWDVSTGMCLMTLVGHDNWVRGVLFHSGGKFILSCADDKTLRVWDYKNKRCMKTLNAHEHFVTSLDFHKTAPYVVTGSVDQTVKVWECR |  | binds | binds | binds

Source: PMC3207863
